From patent US20250073194A1, “RXR AGONISTS IN EYE DISORDERS” (Baylor College of Medicine, priority 2022, published 2025)

Test system: monocytes
Assay: ATAC seq of LPS-stimulated cultured monocytes (transcription factor binding motifs)
Format: cell-based, mouse
[1] = 9-cis RA+LPS compared to LPS treatment alone, 100 nM

## CC1=C(/C=C/C(C)=C\C=C\C(C)=C\C(=O)O)C(C)(C)CCC1 [9-cis RA, 9-cis retinoic acid]
[1]
  number of known transcription factor motifs increased, including RAR:RXR: 5
  number of transcription factor motifs decreased, including AP-1: 4
monocytes, ATAC seq
  number of open AP-1 transcription factor binding motifs: decreases
